## Library screen at single concentrations

Protein sequences, listed by entry. Tags and fused reporters are not part of them. Residues count along the entry.
UniProt A4I591, 1-473: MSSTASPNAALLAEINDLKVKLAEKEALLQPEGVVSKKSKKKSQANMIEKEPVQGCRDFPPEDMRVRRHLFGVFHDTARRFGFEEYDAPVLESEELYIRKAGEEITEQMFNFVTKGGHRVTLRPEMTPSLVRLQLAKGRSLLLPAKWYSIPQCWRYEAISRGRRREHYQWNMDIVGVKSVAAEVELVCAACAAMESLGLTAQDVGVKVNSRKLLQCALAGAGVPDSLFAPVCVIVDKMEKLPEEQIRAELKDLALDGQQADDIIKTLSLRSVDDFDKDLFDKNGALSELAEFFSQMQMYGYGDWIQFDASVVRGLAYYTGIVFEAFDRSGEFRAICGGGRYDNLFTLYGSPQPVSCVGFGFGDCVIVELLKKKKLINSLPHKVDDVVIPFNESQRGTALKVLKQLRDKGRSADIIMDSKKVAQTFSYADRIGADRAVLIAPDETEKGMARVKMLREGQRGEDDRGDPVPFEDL
UniProt Q8IDJ8, 1-583: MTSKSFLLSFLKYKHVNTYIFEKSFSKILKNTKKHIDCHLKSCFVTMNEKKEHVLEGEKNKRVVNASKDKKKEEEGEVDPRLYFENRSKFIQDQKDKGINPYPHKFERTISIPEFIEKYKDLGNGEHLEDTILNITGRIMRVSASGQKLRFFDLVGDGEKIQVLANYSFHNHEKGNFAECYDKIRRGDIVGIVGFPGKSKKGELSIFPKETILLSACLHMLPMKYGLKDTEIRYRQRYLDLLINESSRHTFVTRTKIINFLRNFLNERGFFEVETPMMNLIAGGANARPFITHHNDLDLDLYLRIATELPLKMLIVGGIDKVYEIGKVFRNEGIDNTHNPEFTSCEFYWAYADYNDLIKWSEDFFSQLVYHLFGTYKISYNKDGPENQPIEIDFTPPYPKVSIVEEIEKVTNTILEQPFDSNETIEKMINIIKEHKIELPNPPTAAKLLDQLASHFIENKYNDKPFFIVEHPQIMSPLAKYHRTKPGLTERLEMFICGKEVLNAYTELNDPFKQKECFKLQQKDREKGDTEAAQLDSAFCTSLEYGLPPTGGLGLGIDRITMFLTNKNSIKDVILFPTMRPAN
UniProt Q4DA54, 1-478: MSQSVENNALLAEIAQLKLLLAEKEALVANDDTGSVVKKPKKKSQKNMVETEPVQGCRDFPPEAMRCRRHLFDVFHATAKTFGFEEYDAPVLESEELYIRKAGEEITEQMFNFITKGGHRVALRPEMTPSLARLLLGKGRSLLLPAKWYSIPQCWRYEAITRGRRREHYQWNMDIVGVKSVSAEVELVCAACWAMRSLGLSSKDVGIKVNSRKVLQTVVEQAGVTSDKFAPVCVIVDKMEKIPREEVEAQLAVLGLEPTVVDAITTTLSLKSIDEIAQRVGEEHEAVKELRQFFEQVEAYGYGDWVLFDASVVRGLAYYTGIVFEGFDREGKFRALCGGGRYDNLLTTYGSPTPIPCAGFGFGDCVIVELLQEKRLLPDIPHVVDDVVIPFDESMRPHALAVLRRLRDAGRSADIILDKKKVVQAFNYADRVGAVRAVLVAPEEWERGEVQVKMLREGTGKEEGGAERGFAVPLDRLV

Data taken from ChEMBL document CHEMBL3988442, “University of Dundee, Small-Polar-MMV Screening Library” (2021).

A: 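Histidine-tRNA ligase, Leishmania infantum (UniProt A4I591). Enzyme assay of histidyl-tRNA synthetase; the read-out is not stated. Compounds at 30 µM. Direction is inferred from retests: higher values go with stronger inhibition. The assay is labelled LdHisRS but filed under L. infantum. Size under these conditions: about 69,000 compounds, about 410 of them at 50% or above in at least one test.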
B: 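Enzyme assay of the cytosolic lysyl-tRNA synthetase in 384-well plates, read by luminescence. Target: Lysine-tRNA ligase, Plasmodium falciparum 3D7 (UniProt Q8IDJ8). Concentration: 30 µM. Higher reads as stronger inhibition, judged from the few compounds that gave an IC50. About 69,000 compounds were tested under these conditions; 0.071% (about 49) showed 50% or more at least once.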
C: 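Enzyme assay of histidyl-tRNA synthetase; the read-out is not stated. Target: Histidine-tRNA ligase, Trypanosoma cruzi CL Brener (UniProt Q4DA54). Tested at 30 µM. Higher reads as stronger inhibition (inferred: compounds with an IC50 in retests scored well above the rest). Size under these conditions: about 69,000 compounds, about 31 of them at 50% or above in at least one test.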

Values are the deposited “Percent Effect”, in %. The record does not define 0% and 100%; most values in the screen are far below 50% and negative numbers occur (in some assays of this library far below -100). Compounds were drawn at random from those tested, without regard to their results. Two or more numbers in one place are separate tests of the same structure; such repeats can differ widely.

For O=C(O)Cc1cccc(-n2ccnc2-c2ccc(Cl)s2)c1 the result was A: 8.511%; B: 2.454%; C: 7.514%.
For Fc1cnc(N2CCCn3c(nnc3Cn3ccnc3)C2)nc1 the result was A: 11.11%; B: 1.792%; C: 9.677%.
For CC1CCC(NS(=O)(=O)CC(=O)Nc2ccc(N3CCCC3)cn2)CC1 (stereo not shown) the result was A: 29.58%; B: 0.1997%; C: 8.287%.
For CS(=O)(=O)NCc1noc2c1CN(C(=O)C1CCC1)CC2 the result was A: 11.88%; B: 2.252%; C: 2.513%.
For CCc1nc(C2CCCN2CCc2ccccn2)no1 (stereo not shown) the result was A: 2.128%; B: -0.3985%; C: -0.7634%.
For COc1ccc(C(C)NC(=O)Cn2ccc(=O)n(C)c2=O)cc1OC (stereo not shown) the result was A: 15.62%; B: 5.586%; C: 4.183%.
For Cc1ccc(C)c2c(C)c(C(=O)NCCCn3cnnc3)[nH]c12 the result was A: 11.5%; B: 1.637%; C: 7.2%.
For CN(C)C(=O)[C@H]1C[C@@H]2CN(S(=O)(=O)Cc3ccccc3)C[C@H]1O2 the result was A: 9.489%; B: 3.801%; C: -0.5464%.
For Cc1cc(C)nc(N2CCC(C(=O)Nc3n[nH]c(CC(C)C)n3)CC2)n1 the result was A: 7.865%; B: 5.744%; C: 5.699%.
For Cc1nc(CN2CCCC(NCC(=O)Nc3cccnc3)C2)no1 (stereo not shown) the result was A: 8.264%; B: 0.5135%; C: -1.681%.
For COc1nn(C)c2c1CCCN(C(=O)c1cccn1C)C2 the result was A: 14.81%; B: 3.897%; C: -0.6135%.
For Cc1oc(-c2ccco2)nc1CN1CCCC(Cn2cncn2)C1 (stereo not shown) the result was A: 5.085%; B: -3.723%; C: 3.429%.
For CC1=Nc2c(c(=O)[nH]n2C2CCCC2)C(c2ccc(C(=O)O)cc2)S1 (stereo not shown) the result was A: 33.7% & 10.87%; B: 6.848% & 8.604%; C: 11.88% & 0.9901%.
For Cc1cc(Cl)ccc1-n1ncc(C(=O)N(C)CCc2ccccn2)c1N the result was A: 13.86%; B: -2.74%; C: 1.136%.
For CCNc1cc2c(nn1)CCN(C(=O)C1Cc3ccccc3O1)C2 (stereo not shown) the result was A: 19.83%; B: 0.3421%; C: 8.163%.
For O=C(Cc1cccc(F)c1)N1CCc2ncnc(NC3CCC3)c2CC1 the result was A: 6.364%; B: 1.623%; C: -2.116%.
For Cc1nc(Nc2ncccn2)cc(C2CCCN2C2CCOCC2)n1 (stereo not shown) the result was A: 19.44%; B: 6.522%; C: 0.5405%.
For CCn1cc(CN2CCCN(C(=O)c3sccc3OC)CC2)cn1 the result was A: 15.25%; B: 1.131%; C: 5.714%.
For c1ccc(O[C@@H]2CN(Cc3nccs3)[C@@H]3CCCO[C@@H]32)nc1 the result was A: 31.43%; B: 9.385%; C: 12.75%.

Repeated from the top, 2 entries:

For O=C(O)Cc1cccc(-n2ccnc2-c2ccc(Cl)s2)c1 the result was A: 8.511%; B: 2.454%; C: 7.514%.
For Fc1cnc(N2CCCn3c(nnc3Cn3ccnc3)C2)nc1 the result was A: 11.11%; B: 1.792%; C: 9.677%.